The target in test [1] is 2α PASB (HIF-2α PASB domain, 240-350) (UniProt Q99814). The test can be described thus: competition ELISA: 2α PASB on Ni plate, peptide titrated, blocked partner GST-1β. In general terms: In an ELISA, binding on a coated surface is turned into a signal by an enzyme label.
For test [2], the target named is HIF-1α (construct not given) (UniProt Q16665). Put plainly: thermal shift assay.
The target of test [3] is Trx-1α (thioredoxin-tagged HIF-1α 1-350, bHLH-PASA-PASB) (UniProt Q16665). The test can be described thus: competition ELISA: His-tagged Trx-1α on Ni plate, peptide titrated, binding of GST-1β (blocked partner) detected with anti-GST, A450.
Test [4] addresses 1α PASB (HIF-1α PASB domain, 238-349) (UniProt Q16665). Put plainly: competition ELISA: 1α PASB on Ni plate, peptide titrated, blocked partner GST-1β.
Test [5] has as its target HIF-2α (construct not given) (UniProt Q99814). The test can be described thus: thermal shift assay.
Test [6] addresses 1α PASB (HIF-1α PASB domain, 238-349) (UniProt Q16665). The test can be described thus: MST, labelled HIF-1α PASB domain.
Test [7] deals with 2α PASB (HIF-2α PASB domain, 240-350) (UniProt Q99814). Put plainly: MST, labelled HIF-2α PASB domain.
The target in test [8] is 1α PASB (HIF-1α PASB domain, 238-349) (UniProt Q16665). Put plainly: ELISA and MST.
The target of test [9] is 2α PASB (HIF-2α PASB domain, 240-350) (UniProt Q99814). The test can be described thus: ELISA and MST.
Test [10] shares this target. Put plainly: point competition ELISA with the PAS-B domain of HIF-2α; blocked partner GST-1β.

Protein sequences, listed by entry. Tags and fused reporters are not part of them. Lines headed by an entry give the natural chain unless they say otherwise; changes in a name come on top. Residues count along the entry.
UniProt Q99814, residues 1-360: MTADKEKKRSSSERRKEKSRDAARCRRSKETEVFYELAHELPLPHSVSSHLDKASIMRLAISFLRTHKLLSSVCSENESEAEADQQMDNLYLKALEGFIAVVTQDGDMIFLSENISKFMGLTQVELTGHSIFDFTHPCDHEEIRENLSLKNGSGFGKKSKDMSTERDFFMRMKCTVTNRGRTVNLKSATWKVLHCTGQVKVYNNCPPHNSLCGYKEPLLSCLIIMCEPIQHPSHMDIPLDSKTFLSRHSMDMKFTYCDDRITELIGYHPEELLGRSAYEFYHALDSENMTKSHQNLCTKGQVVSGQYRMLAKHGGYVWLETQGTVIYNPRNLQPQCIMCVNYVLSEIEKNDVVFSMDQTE
2α PASB (HIF-2α PASB domain, 240-350) (Q99814, residues 240-350): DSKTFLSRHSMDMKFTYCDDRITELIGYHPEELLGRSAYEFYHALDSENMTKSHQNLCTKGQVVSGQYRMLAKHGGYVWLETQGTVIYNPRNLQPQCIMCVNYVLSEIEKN
UniProt Q16665: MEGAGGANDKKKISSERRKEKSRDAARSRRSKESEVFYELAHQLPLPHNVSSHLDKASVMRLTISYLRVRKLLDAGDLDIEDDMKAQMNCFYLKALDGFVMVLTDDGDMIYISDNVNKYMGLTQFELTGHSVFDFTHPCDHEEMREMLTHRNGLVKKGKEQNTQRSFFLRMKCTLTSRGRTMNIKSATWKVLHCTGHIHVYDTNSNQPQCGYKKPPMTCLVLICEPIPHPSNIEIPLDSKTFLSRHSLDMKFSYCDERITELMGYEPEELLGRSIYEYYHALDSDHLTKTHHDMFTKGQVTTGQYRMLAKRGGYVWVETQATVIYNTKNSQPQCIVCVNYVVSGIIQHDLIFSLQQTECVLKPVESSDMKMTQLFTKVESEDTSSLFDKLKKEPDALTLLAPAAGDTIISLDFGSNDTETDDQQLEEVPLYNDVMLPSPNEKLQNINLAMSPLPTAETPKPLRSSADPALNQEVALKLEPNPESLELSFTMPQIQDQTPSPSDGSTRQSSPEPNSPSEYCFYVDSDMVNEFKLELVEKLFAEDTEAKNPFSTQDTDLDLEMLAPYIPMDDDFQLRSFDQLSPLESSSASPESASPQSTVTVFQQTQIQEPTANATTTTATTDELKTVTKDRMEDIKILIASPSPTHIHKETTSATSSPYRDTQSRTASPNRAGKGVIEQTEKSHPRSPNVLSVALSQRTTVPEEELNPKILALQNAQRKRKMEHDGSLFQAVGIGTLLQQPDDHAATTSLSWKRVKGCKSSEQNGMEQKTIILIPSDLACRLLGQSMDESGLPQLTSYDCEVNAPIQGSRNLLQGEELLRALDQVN
1α PASB (HIF-1α PASB domain, 238-349): residues 238-349 of Q16665

Results are given in words; binding and its absence hold for the method and conditions named. Some entries that bind do so weakly or less than the wild type.

Consider CRAIIF, for which the binding entry in test [1] is “binds”.
On the same count and under the same terms, the entry for CRVIAF is “binds”; for CRVAIF it is “binds”.
On to SGWEMIQRR (cyclic peptide (first amino acid joined to the last)) [cyclo-… (SEQ ID NO 5)], for which the binding result in test [2] and in test [3] was “binds” throughout.
Regarding ARVIIF, the binding entry in test [4] and in test [1] was “binds” in each case.
For CRLLIF (cyclic peptide (cyclo-, first amino acid joined to the last)) [cyclo-CRLLIF (SEQ ID NO 3)], the binding entry in test [2], in test [5], in [6] and in test [7] was “binds” in each case.
In the case of CRVIIF (cyclic peptide (cyclo-, first amino acid joined to the last)) [cyclo-CRVIIF (SEQ ID NO 4)], the binding entry in test [8], in [9], in test [2], in test [5], in [6] and in test [7] was “binds” throughout. Further, the binding result in test [10] is “binds”.
With CKLIIF (cyclic peptide (first amino acid joined to the last)) [cyclo-CKLIIF (SEQ ID NO 2)], the binding result in [2], in [5], in test [6] and in test [7] was “binds” each time.

For the origin of these results see patent US20190033318A1.
